Experimental data: PMC8822347, “Sustained Control of Pyruvate Carboxylase by the Essential Second Messenger Cyclic di-AMP in Bacillus subtilis” (mBio, 2022)
No constants are given. Whether binding was seen depends on the method and setting. Binding seen in cells or lysates may run through a third protein. Some results given as binding are weak or reduced against the parent protein; the word gives no strength. Tags and fused reporters may be left off the sequences shown.

How the values were obtained:
[1] = target: T1, His-tagged DarB (bait on Ni-NTA column) (B. subtilis) (UniProt O31698); test: pull-down; His-tagged DarB or His-tagged YlxR bound to a Ni-NTA column; cell extract of B. subtilis expressing Strep-tagged PC (pGP1289) passed over; Western blot against His and Strep tags; only the target purified
T1 sequence: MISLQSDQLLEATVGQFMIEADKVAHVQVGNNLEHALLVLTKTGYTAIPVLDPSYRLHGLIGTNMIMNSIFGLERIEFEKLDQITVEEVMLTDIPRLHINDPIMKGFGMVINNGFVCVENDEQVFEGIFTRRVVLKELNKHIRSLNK

[2] = target: T2, His-tagged YlxR (negative-control bait on Ni-NTA column) (B. subtilis) (UniProt P32728); test: as above
T2 sequence: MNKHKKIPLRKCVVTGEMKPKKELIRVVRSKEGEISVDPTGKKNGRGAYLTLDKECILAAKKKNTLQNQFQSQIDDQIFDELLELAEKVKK

binding [1]: binds | binding [2]: no binding
B1: Strep-tagged PC (pyruvate carboxylase) (enzyme, UniProt Q9KWU4 1-1148)
chain: MSQQSIQKVLVANRGEIAIRIFRACTELNIRTVAVYSKEDSGSYHRYKADEAYLVGEGKKPIDAYLDIEGIIDIAKRNKVDAIHPGYGFLSENIHFARRCEEEGIVFIGPKSEHLDMFGDKVKAREQAEKAGIPVIPGSDGPAETLEAVEQFGQANGYPIIIKASLGGGGRGMRIVRSESEVKEAYERAKSEAKAAFGNDEVYVEKLIENPKHIEVQVIGDKQGNVVHLFERDCSVQRRHQKVIEVAPSVSLSPELRDQICEAAVALAKNVNYINAGTVEFLVANNEFYFIEVNPRVQVEHTITEMITGVDIVQTQILVAQGHSLHSKKVNIPEQKDIFTIGYAIQSRVTTEDPQNDFMPDTGKIMAYRSGGGFGVRLDTGNSFQGAVITPYYDSLLVKLSTWALTFEQAAAKMVRNLQEFRIRGIKTNIPFLENVAKHEKFLTGQYDTSFIDTTPELFNFPKQKDRGTKMLTYIGNVTVNGFPGIGKKEKPAFDKPLGVKVDVDQQPARGTKQILDEKGAEGLANWVKEQKSVLLTDTTFRDAHQSLLATRIRSHDLKKIANPTAALWPELFSMEMWGGATFDVAYRFLKEDPWKRLEDLRKEVPNTLFQMLLRSSNAVGYTNYPDNVIKEFVKQSAQSGIDVFRIFDSLNWVKGMTLAIDAVRDTGKVAEAAICYTGDILDKNRTKYDLAYYTSMAKELEAAGAHILGIKDMAGLLKPQAAYELVSALKETIDIPVHLHTHDTSGNGIYMYAKAVEAGVDIIDVAVSSMAGLTSQPSASGFYHAMEGNDRRPEMNVQGVELLSQYWESVRKYYSEFESGMKSPHTEIYEHEMPGGQYSNLQQQAKGVGLGDRWNEVKEMYRRVNDMFGDIVKVTPSSKVVGDMALYMVQNNLTEKDVYEKGESLDFPDSVVELFKGNIGQPHGGFPEKLQKLILKGQEPITVRPGELLEPVSFEAIKQEFKEQHNLEISDQDAVAYALYPKVFTDYVKTTESYGDISVLDTPTFFYGMTLGEEIEVEIERGKTLIVKLISIGEPQPDATRVVYFELNGQPREVVIKDESIKSSVQERLKADRTNPSHIAASMPGTVIKVLAEAGTKVNKGDHLMINEAMKMETTVQAPFSGTIKQVHVKNGEPIQTGDLLLEIEKA
